The results in this text go back to publication PMC10567733, “C9orf72-catalyzed GTP loading of Rab39A enables HOPS-mediated membrane tethering and fusion in mammalian autophagy” (Nature Communications, 2023).

Chains of the proteins cited; added tags and fusions are not shown. Lines headed by an entry give the natural chain unless they say otherwise; changes in a name come on top.
UniProt Q96DA2: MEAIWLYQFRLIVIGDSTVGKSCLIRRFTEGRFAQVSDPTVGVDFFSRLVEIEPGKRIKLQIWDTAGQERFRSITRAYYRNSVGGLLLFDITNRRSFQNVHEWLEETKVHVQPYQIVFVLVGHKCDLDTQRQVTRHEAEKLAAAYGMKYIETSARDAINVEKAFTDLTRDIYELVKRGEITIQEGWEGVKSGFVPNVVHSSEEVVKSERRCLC

No constants are given. Whether binding was seen depends on the method and setting. Binding seen in cells or lysates may run through a third protein. Binding calls can cover weak binding; strength is not graded here. Sequences can lack the tags named with a protein.

For this experiment, the target named is T1, C9orf72-HA (human) (UniProt Q96LT7).
T1 sequence: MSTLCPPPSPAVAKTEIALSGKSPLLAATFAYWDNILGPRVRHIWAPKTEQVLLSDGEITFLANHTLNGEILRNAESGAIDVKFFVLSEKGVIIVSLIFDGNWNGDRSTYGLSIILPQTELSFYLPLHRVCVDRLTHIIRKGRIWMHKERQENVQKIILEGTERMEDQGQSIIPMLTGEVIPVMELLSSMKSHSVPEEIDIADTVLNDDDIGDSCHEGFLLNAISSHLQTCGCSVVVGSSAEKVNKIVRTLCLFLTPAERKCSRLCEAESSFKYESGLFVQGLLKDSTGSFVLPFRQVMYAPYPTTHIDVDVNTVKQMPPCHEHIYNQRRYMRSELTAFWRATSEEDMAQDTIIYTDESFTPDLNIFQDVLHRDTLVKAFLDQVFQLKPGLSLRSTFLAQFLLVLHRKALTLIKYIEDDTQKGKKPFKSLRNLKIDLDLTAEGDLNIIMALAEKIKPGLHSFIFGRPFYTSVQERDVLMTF
Description: co-IP; 293T cells transfected with tagged protein expression plasmids, lysed after 24 h, IP with Flag M2 agarose or HA agarose, immunoblot; in some panels with or without overexpressed Rab39A, with or without 50 nM Torin 1 for 3 h. (In general: Immunoblotting shows a protein as a band on a membrane.)

EGFP-Rab39B SN (from UniProt Q96DA2): the binding entry was “binds”.
